Assay results reported in publication PMC5159534.

Sequences of proteins named here, by UniProt entry; tags and fusion partners are left off. A change or cut given only in a name is not applied to a line headed by its entry.
UniProt Q38ET5: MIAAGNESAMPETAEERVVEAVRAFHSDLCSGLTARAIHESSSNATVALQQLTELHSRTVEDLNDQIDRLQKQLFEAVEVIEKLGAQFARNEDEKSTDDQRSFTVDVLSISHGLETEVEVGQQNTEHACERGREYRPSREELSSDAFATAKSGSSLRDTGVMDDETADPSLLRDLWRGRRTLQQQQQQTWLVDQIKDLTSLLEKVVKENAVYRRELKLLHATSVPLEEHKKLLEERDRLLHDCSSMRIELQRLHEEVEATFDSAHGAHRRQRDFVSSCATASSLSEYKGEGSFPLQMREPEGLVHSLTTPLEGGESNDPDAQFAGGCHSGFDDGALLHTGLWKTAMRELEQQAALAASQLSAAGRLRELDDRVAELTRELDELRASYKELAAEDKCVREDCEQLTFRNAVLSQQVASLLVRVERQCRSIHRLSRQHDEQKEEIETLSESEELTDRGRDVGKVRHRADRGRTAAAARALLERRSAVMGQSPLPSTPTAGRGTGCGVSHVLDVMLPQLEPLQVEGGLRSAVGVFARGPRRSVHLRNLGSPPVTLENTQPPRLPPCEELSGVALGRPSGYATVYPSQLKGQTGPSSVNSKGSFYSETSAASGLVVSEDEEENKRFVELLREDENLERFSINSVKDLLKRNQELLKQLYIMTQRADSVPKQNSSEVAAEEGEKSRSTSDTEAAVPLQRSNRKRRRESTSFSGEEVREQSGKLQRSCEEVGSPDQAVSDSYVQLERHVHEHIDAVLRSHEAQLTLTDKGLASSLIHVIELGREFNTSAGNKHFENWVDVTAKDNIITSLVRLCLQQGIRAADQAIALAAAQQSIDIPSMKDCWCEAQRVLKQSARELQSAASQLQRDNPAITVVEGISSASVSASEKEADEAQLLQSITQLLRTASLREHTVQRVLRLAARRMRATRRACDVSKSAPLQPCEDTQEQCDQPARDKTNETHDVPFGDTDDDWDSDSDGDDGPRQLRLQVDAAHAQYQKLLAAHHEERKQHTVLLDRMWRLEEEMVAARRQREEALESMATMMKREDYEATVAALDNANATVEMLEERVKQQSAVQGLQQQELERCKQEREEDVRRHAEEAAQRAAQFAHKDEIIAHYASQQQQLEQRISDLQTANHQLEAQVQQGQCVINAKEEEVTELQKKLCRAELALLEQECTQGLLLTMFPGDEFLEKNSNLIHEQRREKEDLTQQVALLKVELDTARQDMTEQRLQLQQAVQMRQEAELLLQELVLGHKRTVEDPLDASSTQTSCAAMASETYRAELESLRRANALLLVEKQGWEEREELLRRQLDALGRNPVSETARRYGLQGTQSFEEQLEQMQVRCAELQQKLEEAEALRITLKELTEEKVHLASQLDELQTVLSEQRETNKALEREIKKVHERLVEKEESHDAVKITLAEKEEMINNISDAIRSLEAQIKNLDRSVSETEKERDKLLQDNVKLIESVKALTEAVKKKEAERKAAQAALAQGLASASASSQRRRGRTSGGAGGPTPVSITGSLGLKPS

Molecular target: NUP-1::GFP (Trypanosoma brucei brucei Lister 427) (UniProt Q586V1)
Test: affinity purification with mass spectrometry; NUP-1::GFP captured from cryomilled PCF trypanosomes on anti-GFP magnetic beads; 20 mM HEPES, pH 7.4, 250 mM NaCl, 0.5% Triton, 0.5% deoxy-BigCHAP; 1D SDS-PAGE, bands identified by MALDI-TOF MS and ESI-MS2

## NUP-2 (nuclear peripheral protein-2), product of Tb927.9.6460 (from UniProt Q38ET5)
  binding: binds

These are yes or no findings as the source states them, for the method shown. In cells and extracts the contact can be indirect. Here binding means that the protein was enriched with, or labelled near, the bait; the list need not be complete.
